In the supplement of paper PMC10849652:
This is one part of the list.

Chains of the proteins cited; added tags and fusions are not shown. Lines headed by an entry give the natural chain unless they say otherwise; changes in a name come on top.
UniProt Q6P1A2: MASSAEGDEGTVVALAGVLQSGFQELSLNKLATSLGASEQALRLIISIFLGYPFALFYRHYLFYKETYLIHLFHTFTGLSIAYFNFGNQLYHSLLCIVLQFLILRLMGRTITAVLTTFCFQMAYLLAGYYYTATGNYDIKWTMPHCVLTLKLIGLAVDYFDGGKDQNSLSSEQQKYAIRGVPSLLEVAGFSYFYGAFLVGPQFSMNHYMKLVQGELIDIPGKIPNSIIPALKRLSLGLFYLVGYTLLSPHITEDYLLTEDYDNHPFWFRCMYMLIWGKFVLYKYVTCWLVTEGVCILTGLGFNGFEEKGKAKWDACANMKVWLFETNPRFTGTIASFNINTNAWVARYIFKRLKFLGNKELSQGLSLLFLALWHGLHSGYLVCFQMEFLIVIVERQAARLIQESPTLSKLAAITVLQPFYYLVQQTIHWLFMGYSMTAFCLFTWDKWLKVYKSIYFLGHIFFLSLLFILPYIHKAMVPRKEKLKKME
UniProt P02545: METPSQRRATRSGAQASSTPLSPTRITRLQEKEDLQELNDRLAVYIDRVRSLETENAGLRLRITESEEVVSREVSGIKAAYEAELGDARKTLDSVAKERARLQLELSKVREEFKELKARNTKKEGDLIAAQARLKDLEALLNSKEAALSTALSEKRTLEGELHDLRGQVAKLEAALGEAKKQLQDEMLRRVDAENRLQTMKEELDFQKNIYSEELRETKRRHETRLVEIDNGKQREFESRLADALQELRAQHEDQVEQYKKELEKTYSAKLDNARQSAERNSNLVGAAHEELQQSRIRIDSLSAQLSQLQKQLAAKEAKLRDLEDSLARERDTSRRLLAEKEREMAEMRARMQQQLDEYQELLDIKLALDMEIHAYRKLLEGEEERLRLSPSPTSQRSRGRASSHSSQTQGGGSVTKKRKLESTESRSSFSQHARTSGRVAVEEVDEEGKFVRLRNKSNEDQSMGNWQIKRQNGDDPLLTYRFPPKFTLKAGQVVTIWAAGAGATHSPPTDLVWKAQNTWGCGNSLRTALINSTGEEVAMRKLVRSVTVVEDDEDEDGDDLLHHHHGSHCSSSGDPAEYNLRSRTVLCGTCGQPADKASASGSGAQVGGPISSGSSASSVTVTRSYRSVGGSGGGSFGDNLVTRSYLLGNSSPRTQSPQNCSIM
UniProt Q15345: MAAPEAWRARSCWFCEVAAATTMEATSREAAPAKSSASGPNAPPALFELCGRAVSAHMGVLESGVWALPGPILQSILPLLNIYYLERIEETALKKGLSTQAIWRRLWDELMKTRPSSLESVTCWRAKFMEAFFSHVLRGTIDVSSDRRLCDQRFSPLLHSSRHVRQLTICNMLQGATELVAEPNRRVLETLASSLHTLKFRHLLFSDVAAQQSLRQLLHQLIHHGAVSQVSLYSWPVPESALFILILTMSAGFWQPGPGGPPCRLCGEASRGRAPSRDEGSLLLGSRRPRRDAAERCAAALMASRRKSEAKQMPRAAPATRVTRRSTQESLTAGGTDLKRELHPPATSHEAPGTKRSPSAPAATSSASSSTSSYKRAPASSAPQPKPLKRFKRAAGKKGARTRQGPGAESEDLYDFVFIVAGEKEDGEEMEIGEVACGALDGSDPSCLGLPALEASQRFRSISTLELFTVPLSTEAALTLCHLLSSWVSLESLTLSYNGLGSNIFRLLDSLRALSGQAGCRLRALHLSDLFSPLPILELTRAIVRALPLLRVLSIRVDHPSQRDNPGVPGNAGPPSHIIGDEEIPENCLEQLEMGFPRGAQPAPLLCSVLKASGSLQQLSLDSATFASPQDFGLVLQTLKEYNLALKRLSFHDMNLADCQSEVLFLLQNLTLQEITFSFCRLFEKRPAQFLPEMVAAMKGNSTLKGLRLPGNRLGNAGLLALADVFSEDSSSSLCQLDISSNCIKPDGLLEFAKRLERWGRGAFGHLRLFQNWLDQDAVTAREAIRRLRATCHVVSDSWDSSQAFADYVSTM
UniProt Q969L4: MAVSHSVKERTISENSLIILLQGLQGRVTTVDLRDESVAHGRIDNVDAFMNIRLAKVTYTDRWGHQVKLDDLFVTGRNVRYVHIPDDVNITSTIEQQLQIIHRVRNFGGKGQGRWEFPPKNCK
UniProt Q96AG4: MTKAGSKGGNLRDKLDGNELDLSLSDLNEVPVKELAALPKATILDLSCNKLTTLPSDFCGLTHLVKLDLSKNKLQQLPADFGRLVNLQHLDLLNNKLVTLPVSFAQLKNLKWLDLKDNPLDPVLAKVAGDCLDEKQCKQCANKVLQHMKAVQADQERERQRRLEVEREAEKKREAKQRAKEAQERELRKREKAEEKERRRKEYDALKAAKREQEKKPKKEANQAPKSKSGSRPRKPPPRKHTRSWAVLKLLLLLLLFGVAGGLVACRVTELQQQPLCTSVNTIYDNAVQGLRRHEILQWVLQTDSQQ
UniProt Q9BX40: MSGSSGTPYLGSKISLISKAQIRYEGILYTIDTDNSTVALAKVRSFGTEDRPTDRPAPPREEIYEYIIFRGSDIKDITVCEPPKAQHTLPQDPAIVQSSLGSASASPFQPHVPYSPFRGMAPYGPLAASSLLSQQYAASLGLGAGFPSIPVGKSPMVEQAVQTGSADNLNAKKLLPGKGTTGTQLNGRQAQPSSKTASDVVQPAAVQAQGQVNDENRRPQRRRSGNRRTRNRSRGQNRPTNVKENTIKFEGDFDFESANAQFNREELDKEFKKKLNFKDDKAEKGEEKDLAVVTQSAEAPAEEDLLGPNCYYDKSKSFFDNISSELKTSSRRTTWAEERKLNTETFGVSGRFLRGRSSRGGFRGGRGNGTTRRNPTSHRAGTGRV
UniProt P48059, whole entry, looked up: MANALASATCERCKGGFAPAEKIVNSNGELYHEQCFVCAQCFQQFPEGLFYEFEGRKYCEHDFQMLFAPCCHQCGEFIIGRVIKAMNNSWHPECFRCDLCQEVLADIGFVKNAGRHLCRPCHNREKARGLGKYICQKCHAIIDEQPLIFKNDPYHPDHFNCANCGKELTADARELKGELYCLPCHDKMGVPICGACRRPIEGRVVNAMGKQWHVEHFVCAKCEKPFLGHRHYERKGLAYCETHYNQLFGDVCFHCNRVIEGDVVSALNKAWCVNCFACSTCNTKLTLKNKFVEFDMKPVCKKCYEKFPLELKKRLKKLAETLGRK
UniProt A6NK58: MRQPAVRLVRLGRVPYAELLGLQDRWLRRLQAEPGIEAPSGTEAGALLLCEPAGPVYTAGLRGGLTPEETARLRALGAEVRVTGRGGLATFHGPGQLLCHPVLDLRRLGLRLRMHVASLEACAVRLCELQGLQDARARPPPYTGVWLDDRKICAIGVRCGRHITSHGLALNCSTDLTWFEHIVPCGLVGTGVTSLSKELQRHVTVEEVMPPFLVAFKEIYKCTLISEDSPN
UniProt Q14693: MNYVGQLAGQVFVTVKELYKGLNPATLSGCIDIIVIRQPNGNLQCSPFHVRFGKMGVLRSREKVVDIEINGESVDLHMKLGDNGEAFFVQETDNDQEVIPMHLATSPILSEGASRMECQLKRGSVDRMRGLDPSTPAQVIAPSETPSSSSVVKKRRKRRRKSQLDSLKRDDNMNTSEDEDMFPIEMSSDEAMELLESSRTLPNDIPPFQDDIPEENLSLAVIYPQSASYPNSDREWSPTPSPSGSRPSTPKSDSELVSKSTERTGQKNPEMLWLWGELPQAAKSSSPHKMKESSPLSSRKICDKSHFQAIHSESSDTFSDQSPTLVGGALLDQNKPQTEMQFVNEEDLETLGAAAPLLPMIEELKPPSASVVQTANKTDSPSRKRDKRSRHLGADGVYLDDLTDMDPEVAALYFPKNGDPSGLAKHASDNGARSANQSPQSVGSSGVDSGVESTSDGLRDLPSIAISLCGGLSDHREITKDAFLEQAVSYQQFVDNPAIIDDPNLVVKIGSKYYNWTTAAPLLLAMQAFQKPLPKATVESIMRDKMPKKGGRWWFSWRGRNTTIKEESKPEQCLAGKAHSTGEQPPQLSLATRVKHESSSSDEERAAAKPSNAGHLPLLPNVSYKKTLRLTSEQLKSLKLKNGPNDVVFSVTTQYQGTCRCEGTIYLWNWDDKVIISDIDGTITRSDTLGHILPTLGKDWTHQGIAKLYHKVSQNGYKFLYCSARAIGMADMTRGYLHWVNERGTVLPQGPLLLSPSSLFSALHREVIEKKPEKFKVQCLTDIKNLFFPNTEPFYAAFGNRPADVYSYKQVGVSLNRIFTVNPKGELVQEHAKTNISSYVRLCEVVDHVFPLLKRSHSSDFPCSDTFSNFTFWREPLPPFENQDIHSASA
UniProt P07864: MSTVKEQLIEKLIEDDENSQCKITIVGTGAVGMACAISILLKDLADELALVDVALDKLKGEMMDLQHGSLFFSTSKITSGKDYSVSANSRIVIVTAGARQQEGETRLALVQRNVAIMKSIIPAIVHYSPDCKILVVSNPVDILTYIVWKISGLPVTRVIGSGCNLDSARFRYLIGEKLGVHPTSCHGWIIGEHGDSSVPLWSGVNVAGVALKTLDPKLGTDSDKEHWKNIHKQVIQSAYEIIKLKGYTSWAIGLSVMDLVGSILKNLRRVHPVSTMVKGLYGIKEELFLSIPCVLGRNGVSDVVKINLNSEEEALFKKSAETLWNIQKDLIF
UniProt Q6ZN17: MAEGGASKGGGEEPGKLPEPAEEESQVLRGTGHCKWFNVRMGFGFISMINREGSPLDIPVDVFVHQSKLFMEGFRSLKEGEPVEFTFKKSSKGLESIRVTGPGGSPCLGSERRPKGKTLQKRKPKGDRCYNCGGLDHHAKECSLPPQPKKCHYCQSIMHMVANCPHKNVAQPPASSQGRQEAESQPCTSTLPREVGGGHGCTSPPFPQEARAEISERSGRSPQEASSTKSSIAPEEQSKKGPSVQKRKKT
UniProt Q9P244: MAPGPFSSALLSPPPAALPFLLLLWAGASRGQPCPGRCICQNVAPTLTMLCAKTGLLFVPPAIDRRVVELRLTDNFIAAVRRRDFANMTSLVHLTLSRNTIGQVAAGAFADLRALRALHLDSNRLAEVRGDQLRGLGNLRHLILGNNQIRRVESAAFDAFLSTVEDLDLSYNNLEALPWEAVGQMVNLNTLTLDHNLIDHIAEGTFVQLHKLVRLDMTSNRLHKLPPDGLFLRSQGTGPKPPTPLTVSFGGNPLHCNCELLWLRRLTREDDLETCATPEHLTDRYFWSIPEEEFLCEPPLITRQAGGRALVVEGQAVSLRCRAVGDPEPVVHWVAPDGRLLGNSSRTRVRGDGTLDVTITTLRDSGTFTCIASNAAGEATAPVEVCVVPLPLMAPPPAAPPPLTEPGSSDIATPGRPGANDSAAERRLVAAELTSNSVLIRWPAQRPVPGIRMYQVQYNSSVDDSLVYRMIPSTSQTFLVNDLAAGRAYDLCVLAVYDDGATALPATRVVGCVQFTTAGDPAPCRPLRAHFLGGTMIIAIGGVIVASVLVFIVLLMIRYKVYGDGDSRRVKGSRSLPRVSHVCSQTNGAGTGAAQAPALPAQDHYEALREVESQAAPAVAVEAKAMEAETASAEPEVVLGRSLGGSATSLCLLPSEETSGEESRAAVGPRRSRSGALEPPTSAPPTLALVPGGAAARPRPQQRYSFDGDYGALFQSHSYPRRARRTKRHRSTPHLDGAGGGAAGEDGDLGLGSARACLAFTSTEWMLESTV
UniProt Q9Y2U8: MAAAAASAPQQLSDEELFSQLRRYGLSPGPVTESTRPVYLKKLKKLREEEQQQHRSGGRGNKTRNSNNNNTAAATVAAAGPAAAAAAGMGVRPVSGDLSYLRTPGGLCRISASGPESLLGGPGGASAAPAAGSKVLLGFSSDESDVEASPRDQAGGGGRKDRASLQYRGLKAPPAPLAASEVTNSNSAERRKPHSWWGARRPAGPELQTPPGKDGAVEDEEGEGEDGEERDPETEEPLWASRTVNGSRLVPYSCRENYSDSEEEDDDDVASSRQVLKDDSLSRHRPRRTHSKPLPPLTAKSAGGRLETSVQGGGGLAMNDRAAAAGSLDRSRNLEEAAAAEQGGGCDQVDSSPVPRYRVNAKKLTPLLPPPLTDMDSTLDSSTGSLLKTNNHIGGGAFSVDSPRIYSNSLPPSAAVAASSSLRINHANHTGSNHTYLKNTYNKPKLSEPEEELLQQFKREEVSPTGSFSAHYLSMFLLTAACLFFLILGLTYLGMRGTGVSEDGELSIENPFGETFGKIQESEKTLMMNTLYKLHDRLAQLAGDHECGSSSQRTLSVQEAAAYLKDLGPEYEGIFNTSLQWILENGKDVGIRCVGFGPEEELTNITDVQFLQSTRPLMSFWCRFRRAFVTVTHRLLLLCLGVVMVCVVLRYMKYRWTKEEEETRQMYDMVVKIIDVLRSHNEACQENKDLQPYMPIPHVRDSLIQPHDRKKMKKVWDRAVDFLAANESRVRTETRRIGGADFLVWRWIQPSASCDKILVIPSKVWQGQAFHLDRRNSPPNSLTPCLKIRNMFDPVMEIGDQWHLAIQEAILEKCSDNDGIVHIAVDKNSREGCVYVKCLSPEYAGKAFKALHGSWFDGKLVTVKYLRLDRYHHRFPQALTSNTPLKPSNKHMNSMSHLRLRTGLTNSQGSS

Assays:
Test in all cases: log2 fold change, soluble protein after heating vs DMSO (PISA); higher = thermal stabilisation; K562 lysate, 10 uM; active = over 0.2 and 3.5 SD of the protein, either way, in both replicates (recomputed)
lapatinib = compound: CS(=O)(=O)CCNCc1ccc(-c2ccc3ncnc(Nc4ccc(OCc5cccc(F)c5)c(Cl)c4)c3c2)o1 [lapatinib]
In short: (§1)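 The values are log-two fold changes in thermal stability compared with solvent controls and come from duplicates. They were obtained by TMTpro 16plex LC-MS/MS, with channel sums equalised, on the supernatant after 21,000xg for 90 min. That supernatant came from crude K562 extract at 1 mg/mL protein treated with 10 μM compound for 30 min, heated for 3 min across 48°C-58°C, pooled and brought to 0.5% NP-40 at 4°C.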

pictilisib = compound: CS(=O)(=O)N1CCN(Cc2cc3nc(-c4cccc5[nH]ncc45)nc(N4CCOCC4)c3s2)CC1 [pictilisib]
In short: as §1

crizotinib = compound: C[C@@H](Oc1cc(-c2cnn(C3CCNCC3)c2)cnc1N)c1c(Cl)ccc(F)c1Cl [crizotinib]
In short: as §1

[1] = compound: C[C@H](C1=CC=C(C=C1)C(=O)NC2=C3C=CNC3=NC=C2)N
In short: as §1

duvelisib = compound: C[C@H](Nc1ncnc2nc[nH]c12)c1cc2cccc(Cl)c2c(=O)n1-c1ccccc1 [duvelisib]
In short: as §1

gandotinib = compound: Cc1cc(Nc2cc(CN3CCOCC3)c3nc(C)c(Cc4ccc(Cl)cc4F)n3n2)n[nH]1 [gandotinib]
In short: as §1

tozasertib = compound: Cc1cc(Nc2cc(N3CCN(C)CC3)nc(Sc3ccc(NC(=O)C4CC4)cc3)n2)n[nH]1 [tozasertib]
In short: as §1

doramapimod = compound: Cc1ccc(-n2nc(C(C)(C)C)cc2NC(=O)Nc2ccc(OCCN3CCOCC3)c3ccccc23)cc1 [doramapimod]
In short: as §1

bafetinib = compound: Cc1ccc(NC(=O)c2ccc(CN3CC[C@H](N(C)C)C3)c(C(F)(F)F)c2)cc1Nc1nccc(-c2cncnc2)n1 [bafetinib]
In short: as §1

[2] = compound: Cc1cccc(CC(=O)N2CCc3c2ccc(-c2cn(C)c4ncnc(N)c24)c3F)n1
In short: as §1

Measured: log2 fold change

LPCAT3 (UniProt Q6P1A2)
inactive: lapatinib 0.004 | pictilisib -0.048 | crizotinib -0.146 | [1] -0.041 | duvelisib 0.071 | gandotinib 0.002 | tozasertib -0.035 | doramapimod 0.091 | bafetinib 0.18 | [2] 0.035

LMNA (UniProt P02545)
inactive: lapatinib -0.014 | pictilisib -0.009 | crizotinib 0.059 | [1] -0.005 | duvelisib -0.007 | gandotinib -0.01 | tozasertib 0.019 | doramapimod 0.02 | bafetinib 0.02 | [2] -0.016

LRRC41 (UniProt Q15345)
inactive: lapatinib 0.017 | pictilisib 0.002 | crizotinib 0.067 | duvelisib 0.107 | tozasertib -0.013 | doramapimod -0.003 | bafetinib -0.027

LLGL2 (UniProt Q6P1M3)
inactive: lapatinib 0.133 | crizotinib -0.092 | duvelisib -0.003 | tozasertib -0.064 | doramapimod 0.245

LSM10 (UniProt Q969L4)
inactive: lapatinib 0.079 | pictilisib 0.047 | [1] 0.028 | duvelisib -0.116 | gandotinib 0.027 | bafetinib -0.031 | [2] 0.022

LRRC59 (UniProt Q96AG4)
inactive: lapatinib -0.015 | pictilisib -0.007 | crizotinib 0.011 | [1] -0.011 | duvelisib -0.037 | gandotinib 0.009 | tozasertib 0.009 | doramapimod 0.004 | bafetinib 0.041 | [2] -0.039

LDHA (UniProt F5GZQ4)
inactive: lapatinib -0.261 | pictilisib -0.43 | [1] -0.08 | gandotinib 0.034 | bafetinib -0.182 | [2] -0.002

LRP8 (UniProt Q14114)
inactive: lapatinib -0.21 | pictilisib -0.207 | crizotinib -0.064 | [1] -0.031 | gandotinib -0.033 | tozasertib -0.019 | doramapimod -0.035 | bafetinib 0.034 | [2] 0.102

LSM14B (UniProt Q9BX40)
inactive: lapatinib 0.022 | pictilisib -0.035 | crizotinib -0.057 | doramapimod 0.108 | bafetinib 0.162

LDHA isoform 3 (UniProt P00338)
inactive: lapatinib 0.005 | pictilisib -0.002 | crizotinib -0.008 | [1] 0.006 | duvelisib -0.001 | gandotinib 0.02 | tozasertib -0.014 | doramapimod 0.031 | bafetinib 0.081 | [2] -0.021

LCP1 (UniProt P13796)
inactive: lapatinib 0.029 | pictilisib 0.023 | crizotinib 0.003 | [1] -0.032 | duvelisib 0 | gandotinib 0.03 | tozasertib 0.009 | doramapimod 0.01 | bafetinib 0.046 | [2] -0.007

LMNB2 (UniProt Q03252)
inactive: lapatinib 0.002 | pictilisib -0.041 | crizotinib 0.002 | [1] -0.028 | duvelisib 0.01 | gandotinib -0.022 | tozasertib 0.008 | doramapimod 0.03 | bafetinib -0.088 | [2] 0.007

LEPROTL1 isoform 2 (UniProt O95214)
inactive: lapatinib -0.15 | pictilisib 0.003 | duvelisib -0.19 | bafetinib -0.118

LIMS1 isoform 3 (UniProt P48059)
inactive: lapatinib 0.002 | pictilisib -0.019 | crizotinib 0.103 | [1] -0.045 | duvelisib -0.023 | gandotinib 0.008 | tozasertib -0.02 | doramapimod -0.068 | bafetinib -0.035 | [2] 0.038

LIPT2 (UniProt A6NK58)
inactive: lapatinib 0 | pictilisib -0.258 | tozasertib 0.003 | bafetinib -0.287

LRBA, A0A494BZW2
inactive: lapatinib -0.072 | pictilisib -0.03 | crizotinib -0.38 | [1] -0.071 | duvelisib 0.014 | gandotinib 0 | tozasertib -0.065 | doramapimod 0.477 | bafetinib -0.035 | [2] -0.025

LEPROT (UniProt O15243)
inactive: lapatinib -0.058 | pictilisib 0 | crizotinib -0.069 | [1] -0.019 | gandotinib 0.054 | tozasertib -0.116 | doramapimod 0 | bafetinib -0.067 | [2] 0.056

LPIN1 isoform 7 (UniProt Q14693)
inactive: lapatinib -0.052 | pictilisib -0.082 | crizotinib -0.035 | [1] -0.069 | duvelisib -0.097 | gandotinib -0.005 | tozasertib 0.012 | doramapimod 0.013 | bafetinib -0.04 | [2] 0.097

LRFN4 (UniProt Q6PJG9)
inactive: lapatinib 0.162 | crizotinib -0.028 | [1] -0.002 | duvelisib 0.012 | gandotinib -0.139 | tozasertib 0.024 | doramapimod 0.079 | [2] 0.074

Taken from the listing (two entries):
LPIN1 isoform 7 (UniProt Q14693)
inactive: lapatinib -0.052 | pictilisib -0.082 | crizotinib -0.035 | [1] -0.069 | duvelisib -0.097 | gandotinib -0.005 | tozasertib 0.012 | doramapimod 0.013 | bafetinib -0.04 | [2] 0.097

LRFN4 (UniProt Q6PJG9)
inactive: lapatinib 0.162 | crizotinib -0.028 | [1] -0.002 | duvelisib 0.012 | gandotinib -0.139 | tozasertib 0.024 | doramapimod 0.079 | [2] 0.074

Next part.

LDHC (UniProt P07864)
inactive: lapatinib -0.032 | pictilisib -0.039 | duvelisib -0.007 | tozasertib -0.046 | bafetinib 0.12

LRCH1 isoform 3 (UniProt Q9Y2L9)
inactive: lapatinib -0.012 | pictilisib -0.061 | duvelisib 0 | bafetinib -0.128

LETMD1 isoform 7 (UniProt Q6P1Q0)
inactive: lapatinib 0.015 | pictilisib -0.132 | crizotinib -0.115 | [1] -0.024 | duvelisib -0.051 | gandotinib 0.05 | tozasertib 0.021 | doramapimod 0.073 | bafetinib -0.142 | [2] 0.075

LTA4H (UniProt P09960)
inactive: lapatinib -0.008 | pictilisib -0.003 | crizotinib 0.028 | [1] -0.006 | duvelisib 0.017 | gandotinib 0.028 | tozasertib 0.009 | doramapimod -0.004 | bafetinib 0.213 | [2] -0.026

LRIF1 (UniProt Q5T3J3)
inactive: lapatinib -0.094 | crizotinib 0.019 | [1] -0.008 | duvelisib -0.133 | gandotinib 0.006 | tozasertib 0.039 | doramapimod 0.026 | [2] -0.038

LIN28B (UniProt Q6ZN17)
inactive: lapatinib 0.006 | pictilisib 0.024 | crizotinib 0.024 | [1] -0.031 | duvelisib -0.011 | gandotinib -0.005 | tozasertib 0.002 | doramapimod 0.027 | bafetinib 0.005 | [2] 0.04

LENG8 (UniProt Q96PV6)
inactive: lapatinib 0.103 | pictilisib -0.057 | crizotinib -0.027 | [1] -0.07 | duvelisib 0.157 | gandotinib -0.053 | tozasertib -0.054 | doramapimod 0.022 | bafetinib -0.089 | [2] 0.084

LEG1 (UniProt Q6P5S2)
inactive: lapatinib -0.042 | pictilisib -0.22 | crizotinib -0.157 | duvelisib 0.152 | tozasertib -0.027 | doramapimod 0.299 | bafetinib -0.448

LRFN1 (UniProt Q9P244)
inactive: lapatinib 0.048 | pictilisib -0.242 | crizotinib -0.023 | duvelisib 0.027 | tozasertib -0.124 | doramapimod 0.062 | bafetinib 0

LMTK2 (UniProt Q8IWU2)
inactive: lapatinib -0.019 | pictilisib -0.059 | crizotinib -0.025 | [1] -0.015 | duvelisib 0.105 | gandotinib -0.016 | tozasertib 0.03 | doramapimod 0.004 | bafetinib 0.038 | [2] 0.033

LRPPRC (UniProt P42704)
inactive: lapatinib -0.01 | pictilisib 0.048 | crizotinib -0.062 | [1] 0.058 | duvelisib -0.005 | gandotinib -0.189 | tozasertib 0.023 | doramapimod 0.022 | bafetinib -0.008 | [2] 0.045

LEMD3 (UniProt Q9Y2U8)
inactive: lapatinib 0.078 | pictilisib 0.158 | crizotinib -0.053 | [1] -0.089 | gandotinib -0.029 | doramapimod -0.072 | bafetinib -0.001 | [2] -0.054
